The other results are listed elsewhere or left out. The data scatter; read single values as rough.
compound: ClCC(=O)N[C@H]1CCCc2ccccc12; test: log2 mean competition ratio of IA-DTB cysteine labelling (DMSO/compound) (log2 ratio); higher = stronger cysteine engagement by compound; settings: 50 µM; treatment time: 4 h; cell line lysate: HEK293T
Description: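 IA-DTB competitive cysteine chemoproteomics in HEK293T RIPA lysate. Lysates were treated with compound 29 or 30 at 50 or 200 µM for 4 h, then IA-DTB (500 µM, 1 h), trypsin-digested, NeutrAvidin-enriched and analysed by diaPASEF. Competition ratio = intensity DMSO / intensity compound (n=4 treated, n=64 DMSO); binding: mean log2 CR ≥ 1 and p ≤ 0.05 plus QC filters. Target is the cysteine site.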

The chains behind the UniProt entries cited, without tags or fusion partners. Where a name states a change or a piece, a line headed by the entry shows the natural chain unless it says otherwise. Residues count along the entry.
UniProt O75467: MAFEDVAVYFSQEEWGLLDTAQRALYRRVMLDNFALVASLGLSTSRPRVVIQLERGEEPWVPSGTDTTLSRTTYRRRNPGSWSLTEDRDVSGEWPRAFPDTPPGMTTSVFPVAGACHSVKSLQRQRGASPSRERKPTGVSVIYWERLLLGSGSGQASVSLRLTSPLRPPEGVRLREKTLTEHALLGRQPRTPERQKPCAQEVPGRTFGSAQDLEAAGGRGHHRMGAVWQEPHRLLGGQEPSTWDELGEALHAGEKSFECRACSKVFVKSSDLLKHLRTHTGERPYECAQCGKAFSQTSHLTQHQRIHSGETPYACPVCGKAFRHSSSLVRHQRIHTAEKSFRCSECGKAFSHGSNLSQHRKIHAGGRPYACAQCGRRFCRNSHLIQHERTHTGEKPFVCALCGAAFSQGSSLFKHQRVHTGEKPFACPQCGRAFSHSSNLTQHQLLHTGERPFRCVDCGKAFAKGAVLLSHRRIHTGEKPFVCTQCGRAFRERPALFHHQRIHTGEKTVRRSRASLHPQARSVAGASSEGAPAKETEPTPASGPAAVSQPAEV
UniProt Q5SVZ6, 13-37: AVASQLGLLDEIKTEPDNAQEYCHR
UniProt Q8WW38: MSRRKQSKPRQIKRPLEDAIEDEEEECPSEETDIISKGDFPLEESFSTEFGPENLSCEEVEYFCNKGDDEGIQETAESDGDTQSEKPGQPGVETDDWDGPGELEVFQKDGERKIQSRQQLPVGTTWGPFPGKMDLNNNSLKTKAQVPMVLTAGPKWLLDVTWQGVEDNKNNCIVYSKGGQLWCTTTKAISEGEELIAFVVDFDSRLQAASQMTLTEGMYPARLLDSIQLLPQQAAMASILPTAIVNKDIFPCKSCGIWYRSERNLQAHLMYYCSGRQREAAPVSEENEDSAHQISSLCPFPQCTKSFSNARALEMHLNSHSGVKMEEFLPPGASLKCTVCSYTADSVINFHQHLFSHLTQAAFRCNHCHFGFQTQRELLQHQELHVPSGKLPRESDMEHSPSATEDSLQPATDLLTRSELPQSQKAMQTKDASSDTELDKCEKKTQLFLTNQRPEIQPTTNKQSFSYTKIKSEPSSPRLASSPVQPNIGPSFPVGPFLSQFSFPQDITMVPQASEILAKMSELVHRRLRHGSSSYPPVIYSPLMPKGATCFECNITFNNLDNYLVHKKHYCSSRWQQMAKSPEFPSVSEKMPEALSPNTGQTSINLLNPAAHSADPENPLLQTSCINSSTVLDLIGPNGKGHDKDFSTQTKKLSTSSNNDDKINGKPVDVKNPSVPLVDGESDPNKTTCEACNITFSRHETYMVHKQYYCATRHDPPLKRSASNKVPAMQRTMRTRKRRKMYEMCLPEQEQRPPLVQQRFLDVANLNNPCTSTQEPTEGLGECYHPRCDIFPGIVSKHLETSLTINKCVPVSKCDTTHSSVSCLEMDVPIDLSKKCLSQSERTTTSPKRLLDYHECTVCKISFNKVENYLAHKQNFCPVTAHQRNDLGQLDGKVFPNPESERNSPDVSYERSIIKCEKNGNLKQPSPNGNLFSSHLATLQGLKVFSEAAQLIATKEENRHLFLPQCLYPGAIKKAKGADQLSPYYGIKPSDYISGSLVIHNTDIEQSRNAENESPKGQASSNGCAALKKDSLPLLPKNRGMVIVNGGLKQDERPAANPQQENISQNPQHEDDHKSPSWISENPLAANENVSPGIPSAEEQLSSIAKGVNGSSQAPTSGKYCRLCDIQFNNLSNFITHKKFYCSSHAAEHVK
UniProt Q86WB0: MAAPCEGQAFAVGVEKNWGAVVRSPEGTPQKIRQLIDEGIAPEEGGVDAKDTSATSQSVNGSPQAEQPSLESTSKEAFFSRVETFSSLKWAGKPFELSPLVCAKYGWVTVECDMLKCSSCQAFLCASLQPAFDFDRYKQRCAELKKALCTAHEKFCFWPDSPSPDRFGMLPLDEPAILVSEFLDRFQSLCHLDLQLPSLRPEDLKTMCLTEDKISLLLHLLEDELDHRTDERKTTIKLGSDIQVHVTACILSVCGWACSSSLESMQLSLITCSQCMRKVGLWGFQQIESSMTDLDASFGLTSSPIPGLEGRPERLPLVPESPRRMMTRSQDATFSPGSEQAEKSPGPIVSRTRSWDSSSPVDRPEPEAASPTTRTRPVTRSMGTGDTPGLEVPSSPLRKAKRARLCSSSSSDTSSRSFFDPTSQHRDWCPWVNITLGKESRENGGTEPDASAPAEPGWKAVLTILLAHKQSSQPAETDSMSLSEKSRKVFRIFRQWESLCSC
UniProt Q14202: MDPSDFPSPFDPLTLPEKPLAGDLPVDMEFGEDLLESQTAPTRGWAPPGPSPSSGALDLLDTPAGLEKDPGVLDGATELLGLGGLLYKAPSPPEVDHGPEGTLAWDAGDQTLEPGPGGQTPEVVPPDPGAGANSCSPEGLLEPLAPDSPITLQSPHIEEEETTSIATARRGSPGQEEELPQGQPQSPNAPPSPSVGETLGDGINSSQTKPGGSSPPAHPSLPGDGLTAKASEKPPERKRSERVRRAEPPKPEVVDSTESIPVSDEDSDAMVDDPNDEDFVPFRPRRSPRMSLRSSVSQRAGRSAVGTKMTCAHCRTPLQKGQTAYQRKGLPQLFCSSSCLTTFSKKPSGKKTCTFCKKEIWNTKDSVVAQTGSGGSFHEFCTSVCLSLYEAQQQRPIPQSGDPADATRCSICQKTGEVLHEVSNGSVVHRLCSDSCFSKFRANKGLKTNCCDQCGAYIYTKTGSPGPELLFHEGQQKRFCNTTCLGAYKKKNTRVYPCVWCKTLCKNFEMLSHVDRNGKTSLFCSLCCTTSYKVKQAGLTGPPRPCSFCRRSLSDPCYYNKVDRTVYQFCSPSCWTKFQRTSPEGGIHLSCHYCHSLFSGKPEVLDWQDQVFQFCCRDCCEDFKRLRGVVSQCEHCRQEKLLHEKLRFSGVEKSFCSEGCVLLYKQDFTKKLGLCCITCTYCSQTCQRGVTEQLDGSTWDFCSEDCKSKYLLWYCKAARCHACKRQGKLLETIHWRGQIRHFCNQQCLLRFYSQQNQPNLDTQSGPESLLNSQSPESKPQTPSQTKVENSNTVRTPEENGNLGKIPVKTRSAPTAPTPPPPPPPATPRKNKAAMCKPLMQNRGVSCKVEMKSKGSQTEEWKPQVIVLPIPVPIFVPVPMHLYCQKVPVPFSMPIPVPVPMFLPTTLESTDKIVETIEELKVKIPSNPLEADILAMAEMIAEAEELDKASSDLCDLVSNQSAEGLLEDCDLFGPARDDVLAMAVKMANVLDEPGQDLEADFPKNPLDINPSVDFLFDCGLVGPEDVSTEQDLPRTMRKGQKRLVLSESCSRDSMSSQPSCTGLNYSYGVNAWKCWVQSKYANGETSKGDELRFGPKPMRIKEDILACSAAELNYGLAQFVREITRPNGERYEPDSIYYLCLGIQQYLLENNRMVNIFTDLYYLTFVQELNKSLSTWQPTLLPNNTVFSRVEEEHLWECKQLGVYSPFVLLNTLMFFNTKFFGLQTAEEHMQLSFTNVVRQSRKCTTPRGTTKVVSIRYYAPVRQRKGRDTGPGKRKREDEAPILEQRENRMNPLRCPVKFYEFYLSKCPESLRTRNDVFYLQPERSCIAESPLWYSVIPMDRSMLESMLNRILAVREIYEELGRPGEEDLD
UniProt Q9UBW7: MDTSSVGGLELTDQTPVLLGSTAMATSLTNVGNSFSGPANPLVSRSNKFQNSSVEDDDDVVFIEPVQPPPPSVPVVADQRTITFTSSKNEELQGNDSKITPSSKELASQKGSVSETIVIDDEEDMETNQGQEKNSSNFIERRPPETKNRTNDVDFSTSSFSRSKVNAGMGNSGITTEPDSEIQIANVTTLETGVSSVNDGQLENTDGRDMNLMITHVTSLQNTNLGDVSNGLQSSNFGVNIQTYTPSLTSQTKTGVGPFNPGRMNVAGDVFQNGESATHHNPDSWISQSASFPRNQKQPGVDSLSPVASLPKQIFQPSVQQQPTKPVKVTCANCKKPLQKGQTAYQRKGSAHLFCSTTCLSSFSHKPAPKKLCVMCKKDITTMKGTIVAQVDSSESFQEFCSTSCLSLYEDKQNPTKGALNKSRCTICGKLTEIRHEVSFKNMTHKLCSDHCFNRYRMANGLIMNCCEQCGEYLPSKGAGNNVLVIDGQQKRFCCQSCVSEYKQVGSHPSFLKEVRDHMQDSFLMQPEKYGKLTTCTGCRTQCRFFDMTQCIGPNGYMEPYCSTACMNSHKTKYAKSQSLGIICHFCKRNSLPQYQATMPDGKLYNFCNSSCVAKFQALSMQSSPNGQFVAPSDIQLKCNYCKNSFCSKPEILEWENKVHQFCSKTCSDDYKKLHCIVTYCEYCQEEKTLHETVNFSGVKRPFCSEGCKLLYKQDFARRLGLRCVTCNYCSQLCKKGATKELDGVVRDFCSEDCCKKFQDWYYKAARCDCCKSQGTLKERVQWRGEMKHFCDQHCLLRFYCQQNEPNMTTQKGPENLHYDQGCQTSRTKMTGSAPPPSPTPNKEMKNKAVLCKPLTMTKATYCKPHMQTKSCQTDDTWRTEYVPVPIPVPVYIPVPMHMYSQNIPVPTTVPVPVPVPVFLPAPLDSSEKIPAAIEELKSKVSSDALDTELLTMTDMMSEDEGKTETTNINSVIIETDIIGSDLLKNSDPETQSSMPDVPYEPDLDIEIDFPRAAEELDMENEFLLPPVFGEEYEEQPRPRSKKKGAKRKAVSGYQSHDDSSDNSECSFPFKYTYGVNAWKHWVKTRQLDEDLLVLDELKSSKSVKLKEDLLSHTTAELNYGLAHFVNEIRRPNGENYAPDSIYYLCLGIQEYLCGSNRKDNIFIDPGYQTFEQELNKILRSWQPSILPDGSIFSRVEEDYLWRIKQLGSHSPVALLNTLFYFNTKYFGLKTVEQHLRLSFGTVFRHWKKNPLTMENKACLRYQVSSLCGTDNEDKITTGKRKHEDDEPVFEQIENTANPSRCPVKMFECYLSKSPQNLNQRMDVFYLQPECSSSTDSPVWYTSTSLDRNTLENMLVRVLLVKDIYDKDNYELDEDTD
UniProt Q6V9R5: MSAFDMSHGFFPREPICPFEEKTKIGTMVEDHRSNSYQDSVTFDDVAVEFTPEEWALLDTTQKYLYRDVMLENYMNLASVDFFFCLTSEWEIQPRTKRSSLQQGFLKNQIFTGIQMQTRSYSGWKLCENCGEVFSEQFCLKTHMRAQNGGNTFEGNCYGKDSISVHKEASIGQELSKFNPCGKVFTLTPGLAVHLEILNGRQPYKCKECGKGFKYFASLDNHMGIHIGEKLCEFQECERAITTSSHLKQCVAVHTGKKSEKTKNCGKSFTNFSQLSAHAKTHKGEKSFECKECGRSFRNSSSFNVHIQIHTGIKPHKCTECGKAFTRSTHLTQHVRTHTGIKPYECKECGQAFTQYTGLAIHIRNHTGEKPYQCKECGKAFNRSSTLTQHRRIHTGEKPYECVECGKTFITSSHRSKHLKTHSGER
UniProt Q92618: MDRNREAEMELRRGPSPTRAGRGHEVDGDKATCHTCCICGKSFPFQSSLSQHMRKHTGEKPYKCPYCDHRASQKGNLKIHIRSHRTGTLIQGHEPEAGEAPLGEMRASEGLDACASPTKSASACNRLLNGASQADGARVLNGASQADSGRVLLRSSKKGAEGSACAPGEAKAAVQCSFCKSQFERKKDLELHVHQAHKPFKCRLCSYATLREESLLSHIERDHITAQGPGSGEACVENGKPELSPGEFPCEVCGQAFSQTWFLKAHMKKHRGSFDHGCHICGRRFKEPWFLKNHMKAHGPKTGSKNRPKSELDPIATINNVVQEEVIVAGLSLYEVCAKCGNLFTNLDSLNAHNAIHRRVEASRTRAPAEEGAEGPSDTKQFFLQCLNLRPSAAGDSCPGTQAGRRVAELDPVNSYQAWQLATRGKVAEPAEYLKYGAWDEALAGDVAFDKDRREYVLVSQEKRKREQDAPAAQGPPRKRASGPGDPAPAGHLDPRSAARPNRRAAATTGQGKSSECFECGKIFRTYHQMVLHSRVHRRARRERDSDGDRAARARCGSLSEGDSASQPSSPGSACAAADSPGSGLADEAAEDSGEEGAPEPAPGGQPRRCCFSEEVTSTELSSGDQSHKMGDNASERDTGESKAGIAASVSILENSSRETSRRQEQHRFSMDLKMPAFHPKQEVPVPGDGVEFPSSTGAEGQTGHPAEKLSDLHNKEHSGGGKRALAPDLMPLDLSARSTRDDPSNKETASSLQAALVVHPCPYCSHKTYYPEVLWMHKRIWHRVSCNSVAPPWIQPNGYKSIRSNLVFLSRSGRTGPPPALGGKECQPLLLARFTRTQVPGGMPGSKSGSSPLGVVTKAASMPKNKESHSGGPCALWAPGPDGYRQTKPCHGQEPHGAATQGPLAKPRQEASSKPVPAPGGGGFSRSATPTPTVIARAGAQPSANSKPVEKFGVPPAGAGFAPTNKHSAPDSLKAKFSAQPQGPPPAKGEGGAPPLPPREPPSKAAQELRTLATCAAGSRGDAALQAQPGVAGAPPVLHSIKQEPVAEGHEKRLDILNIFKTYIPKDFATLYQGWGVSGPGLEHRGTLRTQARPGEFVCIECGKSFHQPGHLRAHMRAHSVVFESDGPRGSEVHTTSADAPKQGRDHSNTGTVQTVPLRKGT

| Target | log2 mean competition ratio |
| --- | --- |
| ZNF324 C198 (UniProt O75467) | -0.211 |
| ZNFX1 C738 (UniProt Q9P2E3) | -0.27 |
| ZNF142 C1049 | -0.103 |
| ZMYM1 C35 (UniProt Q5SVZ6) | 0.153 |
| ZNF428 C111 | -0.133 |
| ZFPM2 C788 (UniProt Q8WW38) | 0.122 |
| ZSCAN30 C171 | 0.11 |
| ZC3HC1 C149 (UniProt Q86WB0) | 0.386 |
| ZHX2 C738 (UniProt Q9Y6X8) | -0.398 |
| ZNF518A C813 | 0.025 |
| ZFHX4 C2319 (UniProt Q86UP3) | 0.311 |
| ZMYM3 C1197 (UniProt Q14202) | -0.219 |
| ZNHIT3 C42 (UniProt Q15649) | -0.212 |
| ZNF512B C129 (UniProt Q96KM6) | 0.0952 |
| ZMYM6 C454 | 0.00796 |
| ZMYM2 C1268 (UniProt Q9UBW7) | -0.709 |
| ZNF562 C17 (UniProt Q6V9R5) | 0.727 |
| ZNF592 C463 (UniProt Q92610) | 0.0611 |
| ZNF516 C165 (UniProt Q92618) | 0.00519 |
| ZMYM2 C663 (UniProt Q9UBW7) | 0.0969 |

same assay, conditions: 200 µM; treatment time: 4 h; cell line lysate: HEK293T

| Target | log2 mean competition ratio |
| --- | --- |
| ZNF324 C198 (UniProt O75467) | 0.116 |
| ZNFX1 C738 (UniProt Q9P2E3) | 0.065 |
| ZNF142 C1049 | 0.128 |
| ZMYM1 C35 (UniProt Q5SVZ6) | -0.0517 |
| ZNF428 C111 | 0.0767 |
| ZSCAN30 C171 | 0.017 |
| ZC3HC1 C149 (UniProt Q86WB0) | -0.318 |
| ZNF607 C460 | 0.284 |
| ZHX2 C738 (UniProt Q9Y6X8) | 0.402 |
| ZNF518A C813 | 0.0845 |
| ZFHX4 C2319 (UniProt Q86UP3) | 0.057 |
| ZMYM3 C1197 (UniProt Q14202) | 0.348 |
| ZNHIT3 C42 (UniProt Q15649) | -0.318 |
| ZNF512B C129 (UniProt Q96KM6) | -0.2 |
| ZMYM6 C454 | 0.145 |
| ZMYM2 C1268 (UniProt Q9UBW7) | 0.138 |
| ZNF562 C17 (UniProt Q6V9R5) | -0.0841 |
| ZNF592 C463 (UniProt Q92610) | -0.118 |
| ZNF516 C165 (UniProt Q92618) | 0.202 |
| ZMYM2 C663 (UniProt Q9UBW7) | -0.323 |
